Measurements from article doi:10.1101/2022.04.27.489742.
Results are given in words; binding and its absence hold for the method and conditions named. For some assays here: A result given as binding can be weak or reduced; the word gives no strength. Sequences can lack the tags named with a protein. For some assays here: Binding seen in cells or lysates may run through a third protein.

T1: GST-Lamin (Drosophila) (UniProt P08928)
T1 sequence: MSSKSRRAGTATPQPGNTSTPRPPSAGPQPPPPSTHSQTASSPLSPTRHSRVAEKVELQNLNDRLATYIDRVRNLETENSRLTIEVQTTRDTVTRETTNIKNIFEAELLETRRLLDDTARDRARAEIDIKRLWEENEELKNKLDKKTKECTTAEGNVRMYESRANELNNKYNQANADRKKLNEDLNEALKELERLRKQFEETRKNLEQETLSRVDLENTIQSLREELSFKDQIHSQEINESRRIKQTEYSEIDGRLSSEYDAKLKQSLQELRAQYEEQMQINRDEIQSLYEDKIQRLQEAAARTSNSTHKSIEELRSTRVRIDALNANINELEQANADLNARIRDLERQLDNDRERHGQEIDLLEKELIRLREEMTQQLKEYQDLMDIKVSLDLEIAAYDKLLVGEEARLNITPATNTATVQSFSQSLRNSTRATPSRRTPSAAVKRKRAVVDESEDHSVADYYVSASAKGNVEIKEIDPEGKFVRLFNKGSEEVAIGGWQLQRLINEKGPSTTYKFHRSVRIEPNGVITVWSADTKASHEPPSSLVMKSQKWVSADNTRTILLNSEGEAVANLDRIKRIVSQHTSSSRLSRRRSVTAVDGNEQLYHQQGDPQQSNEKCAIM

B1: YC-Tin (cardiac transcription factor Tinman fused to the C-terminus of YFP) (protein, UniProt P22711 1-416)
chain: MLQHHQQQAQSGGYYDHYTQSPSPGSLTNADALNTTPFSVKDILNMVNQTEAYEGSYGHIDGAATASALFAAGEYQNPHQYLNHQQHQQSELPIPQQQLHHQHLDDGATTSSSLSPLLPPPPHQLYGGYQDYGMPAHMFQHHHGHPHQSFQHSASAYNMSASQFYAGASATAYQTPATYNYNYAGSGEVYGGATPSAVGIKSEYIPTPYVTPSPTLDLNSSAEVDSLQAPTQKLCVNPLSQRLMETASNSSSLRSIYGSDEGAKKKDNSQVTSSRSELRKNSISGNSNPGSNSGSTKPRMKRKPRVLFSQAQVLELECRFRLKKYLTGAEREIIAQKLNLSATQVKIWFQNRRYKSKRGDIDCEGIAKHLKLKSEPLDSPTSLPPPIPNHVMWPPTMQQSQQQQQHHAQQQQMQHM

What was measured:
[1] = target: T1, GST-Lamin (Drosophila); test: pull-down
[2] = target: YN-dKeap1 (dKeap1 fused to the N-terminus of YFP) (Drosophila); test: split reporter

Row | Molecule | binding [1] | binding [2]
1 | dKeap1 without the GST tag (Drosophila) | binds | –
2 | B1 | – | no binding
